Literature values as cited in patent publication US9867832B2, “Pharmaceutical composition for inhibiting immune response through inducing differentiation into regulator T cells and promoting proliferation of regulator T cells” (LG CHEM, LTD., priority 2013, dated 2018).
For at least one compound, name, drawing or mass did not settle the structure.

System: CD4+ T cells isolated from mouse spleen cells
Conditions: in the presence of TGF-beta; known from the art; cited from earlier work

CC1=C(/C=C/C(C)=C/C=C/C(C)=C/C(=O)O)C(C)(C)CCC1 [RA, retinoic acid]
differentiation into Foxp3 Treg: increases differentiation into Foxp3 Treg
